Data: the supplement of paper PMC8728848
The other results are listed elsewhere or left out.

Assays:
Assay in all cases: glycan array binding signal (z-score within array); higher = stronger binding
Conditions in all cases: glycan notation: IUPAC condensed, linker removed
GlcNAc(b1-3)Gal(b1-4)Glc = biological target: GlcNAc(b1-3)Gal(b1-4)Glc
Method in brief: (§1)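 The binding signal is a Z-score computed within each array and averaged over linkers. Arrays of the same protein sequence at different concentrations or buffers were also averaged together. Data originate from 3228 arrays in the Consortium for Functional Glycomics database, kept only where the protein sequence was available.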

[1] = biological target: GlcNAc(b1-3)Gal(b1-4)GlcNAc
Method in brief: as §1

[2] = biological target: GlcNAc(b1-3)Gal(b1-4)GlcNAc(b1-2)Man(a1-3)[GlcNAc(b1-3)Gal(b1-4)GlcNAc(b1-2)Man(a1-6)]Man(b1-4)GlcNAc(b1-4)GlcNAc
Method in brief: as §1

[3] = biological target: GlcNAc(b1-3)Gal(b1-4)GlcNAc(b1-2)Man(a1-3)[GlcNAc(b1-3)Gal(b1-4)GlcNAc(b1-2)Man(a1-6)]Man(b1-4)GlcNAc(b1-4)[Fuc(a1-6)]GlcNAc
Method in brief: as §1

[4] = biological target: GlcNAc(b1-3)Gal(b1-4)GlcNAc(b1-2)[GlcNAc(b1-3)Gal(b1-4)GlcNAc(b1-6)]Man(a1-6)[GlcNAc(b1-3)Gal(b1-4)GlcNAc(b1-2)Man(a1-3)]Man(b1-4)GlcNAc(b1-4)GlcNAc
Method in brief: as §1

[5] = biological target: GlcNAc(b1-3)Gal(b1-4)GlcNAc(b1-3)Gal(b1-4)GlcNAc
Method in brief: as §1

[6] = biological target: GlcNAc(b1-3)Gal(b1-4)GlcNAc(b1-3)Gal(b1-4)GlcNAc(b1-2)Man(a1-3)[GlcNAc(b1-3)Gal(b1-4)GlcNAc(b1-3)Gal(b1-4)GlcNAc(b1-2)Man(a1-6)]Man(b1-4)GlcNAc(b1-4)GlcNAc
Method in brief: as §1

[7] = biological target: GlcNAc(b1-3)Gal(b1-4)GlcNAc(b1-3)Gal(b1-4)GlcNAc(b1-2)Man(a1-3)[GlcNAc(b1-3)Gal(b1-4)GlcNAc(b1-3)Gal(b1-4)GlcNAc(b1-2)Man(a1-6)]Man(b1-4)GlcNAc(b1-4)[Fuc(a1-6)]GlcNAc
Method in brief: as §1

[8] = biological target: GlcNAc(b1-3)Gal(b1-4)GlcNAc(b1-3)Gal(b1-4)GlcNAc(b1-2)[GlcNAc(b1-3)Gal(b1-4)GlcNAc(b1-3)Gal(b1-4)GlcNAc(b1-6)]Man(a1-6)[GlcNAc(b1-3)Gal(b1-4)GlcNAc(b1-3)Gal(b1-4)GlcNAc(b1-2)Man(a1-3)]Man(b1-4)GlcNAc(b1-4)[Fuc(a1-6)]GlcNAc
Method in brief: as §1

[9] = biological target: GlcNAc(b1-3)Gal(b1-4)GlcNAc(b1-3)Gal(b1-4)GlcNAc(b1-3)Gal(b1-4)GlcNAc(b1-2)Man(a1-3)[GlcNAc(b1-3)Gal(b1-4)GlcNAc(b1-3)Gal(b1-4)GlcNAc(b1-3)Gal(b1-4)GlcNAc(b1-2)Man(a1-6)]Man(b1-4)GlcNAc(b1-4)GlcNAc
Method in brief: as §1

[10] = biological target: GlcNAc(b1-3)Gal(b1-4)GlcNAc(b1-3)Gal(b1-4)GlcNAc(b1-3)Gal(b1-4)GlcNAc(b1-2)Man(a1-3)[GlcNAc(b1-3)Gal(b1-4)GlcNAc(b1-3)Gal(b1-4)GlcNAc(b1-3)Gal(b1-4)GlcNAc(b1-2)Man(a1-6)]Man(b1-4)GlcNAc(b1-4)[Fuc(a1-6)]GlcNAc
Method in brief: as §1

[11] = biological target: GlcNAc(b1-3)Gal(b1-4)GlcNAc(b1-3)Gal(b1-4)GlcNAc(b1-3)Gal(b1-4)GlcNAc(b1-2)[GlcNAc(b1-3)Gal(b1-4)GlcNAc(b1-3)Gal(b1-4)GlcNAc(b1-3)Gal(b1-4)GlcNAc(b1-6)]Man(a1-6)[GlcNAc(b1-3)Gal(b1-4)GlcNAc(b1-3)Gal(b1-4)GlcNAc(b1-3)Gal(b1-4)GlcNAc(b1-2)Man(a1-3)]Man(b1-4)GlcNAc(b1-4)[Fuc(a1-6)]GlcNAc
Method in brief: as §1

[12] = biological target: GlcNAc(b1-3)Gal(b1-4)GlcNAc(b1-3)Gal(b1-4)GlcNAc(b1-3)Gal(b1-4)GlcNAc(b1-3)Gal(b1-4)GlcNAc(b1-2)Man(a1-3)[GlcNAc(b1-3)Gal(b1-4)GlcNAc(b1-3)Gal(b1-4)GlcNAc(b1-3)Gal(b1-4)GlcNAc(b1-3)Gal(b1-4)GlcNAc(b1-2)Man(a1-6)]Man(b1-4)GlcNAc(b1-4)GlcNAc
Method in brief: as §1

[13] = biological target: GlcNAc(b1-3)Gal(b1-4)GlcNAc(b1-3)Gal(b1-4)GlcNAc(b1-3)Gal(b1-4)GlcNAc(b1-3)Gal(b1-4)GlcNAc(b1-2)Man(a1-3)[GlcNAc(b1-3)Gal(b1-4)GlcNAc(b1-3)Gal(b1-4)GlcNAc(b1-3)Gal(b1-4)GlcNAc(b1-3)Gal(b1-4)GlcNAc(b1-2)Man(a1-6)]Man(b1-4)GlcNAc(b1-4)[Fuc(a1-6)]GlcNAc
Method in brief: as §1

[14] = biological target: GlcNAc(b1-3)Gal(b1-4)GlcNAc(b1-3)Gal(b1-4)GlcNAc(b1-3)Gal(b1-4)GlcNAc(b1-3)Gal(b1-4)GlcNAc(b1-2)[GlcNAc(b1-3)Gal(b1-4)GlcNAc(b1-3)Gal(b1-4)GlcNAc(b1-3)Gal(b1-4)GlcNAc(b1-3)Gal(b1-4)GlcNAc(b1-6)]Man(a1-6)[GlcNAc(b1-3)Gal(b1-4)GlcNAc(b1-3)Gal(b1-4)GlcNAc(b1-3)Gal(b1-4)GlcNAc(b1-3)Gal(b1-4)GlcNAc(b1-2)Man(a1-3)]Man(b1-4)GlcNAc(b1-4)[Fuc(a1-6)]GlcNAc
Method in brief: as §1

[15] = biological target: GlcNAc(b1-3)Gal(b1-4)GlcNAc(b1-3)Gal(b1-4)GlcNAc(b1-3)GalNAc
Method in brief: as §1

[16] = biological target: GlcNAc(b1-3)Gal(b1-4)GlcNAc(b1-3)GalNAc
Method in brief: as §1

[17] = biological target: GlcNAc(b1-3)Gal(b1-4)GlcNAc(b1-3)[GlcNAc(b1-3)Gal(b1-4)GlcNAc(b1-3)]GalNAc
Method in brief: as §1

[18] = biological target: GlcNAc(b1-3)Gal(b1-4)GlcNAc(b1-6)[Gal(b1-3)]GalNAc
Method in brief: as §1

[19] = biological target: GlcNAc(b1-3)Gal(b1-4)GlcNAc(b1-6)[GlcNAc(b1-3)Gal(b1-3)]GalNAc
Method in brief: as §1

[20] = biological target: GlcNAc(b1-3)Gal(b1-4)GlcNAc(b1-6)[GlcNAc(b1-3)]Gal(b1-4)GlcNAc
Method in brief: as §1

GlcNAc(b1-3)GalNAc = biological target: GlcNAc(b1-3)GalNAc
Method in brief: as §1

GlcNAc(b1-3)Man = biological target: GlcNAc(b1-3)Man
Method in brief: as §1

[21] = biological target: GlcNAc(b1-3)[GlcNAc(b1-4)][GlcNAc(b1-6)]GlcNAc
Method in brief: as §1

[22] = biological target: GlcNAc(b1-3)[GlcNAc(b1-6)]Gal(b1-4)GlcNAc
Method in brief: as §1

[23] = biological target: GlcNAc(b1-3)[GlcNAc(b1-6)]GalNAc
Method in brief: as §1

[24] = biological target: GlcNAc(b1-4)Gal(b1-4)GlcNAc
Method in brief: as §1

GlcNAc(b1-4)GlcNAc = biological target: GlcNAc(b1-4)GlcNAc
Method in brief: as §1

[25] = biological target: GlcNAc(b1-4)GlcNAc(b1-4)GlcNAc
Method in brief: as §1

[26] = biological target: GlcNAc(b1-4)GlcNAc(b1-4)GlcNAc(b1-4)GlcNAc(b1-4)GlcNAc
Method in brief: as §1

[27] = biological target: GlcNAc(b1-4)GlcNAc(b1-4)GlcNAc(b1-4)GlcNAc(b1-4)GlcNAc(b1-4)GlcNAc
Method in brief: as §1

[28] = biological target: GlcNAc(b1-4)[GlcNAc(b1-6)]GalNAc
Method in brief: as §1

[29] = biological target: GlcNAc(b1-6)Gal(b1-4)GlcNAc
Method in brief: as §1

GlcNAc(b1-6)GalNAc = biological target: GlcNAc(b1-6)GalNAc
Method in brief: as §1

[30] = biological target: GlcNAc6S(b1-3)Gal(b1-4)GlcNAc
Method in brief: as §1

Kdn(a2-3)Gal(b1-3)GalNAc = biological target: Kdn(a2-3)Gal(b1-3)GalNAc
Method in brief: as §1

Kdn(a2-3)Gal(b1-3)GlcNAc = biological target: Kdn(a2-3)Gal(b1-3)GlcNAc
Method in brief: as §1

B1: Protein L(B1-B4) (Finegoldia magna), Q51912 (protein)
chain: KEETPETPETDSEEEVTIKANLIFANGSTQTAEFKGTFEKATSEAYAYADTLKKDNGEYTVDVADKGYTLNIKFAGKEKTPEEPKEEVTIKANLIYADGKTQTAEFKGTFEEATAEAYRYADALKKDNGEYTVDVADKGYTLNIKFAGKEKTPEEPKEEVTIKANLIYADGKTQTAEFKGTFEEATAEAYRYADLLAKENGKYTVDVADKGYTLNIKFAGKEKTPEEPKEEVTIKANLIYADGKTQTAEFKGTFAEATAEAYRYADLLAKENGKYTADLEDGGYTINIRFAG
- glycan array binding signal (z-score) (GlcNAc(b1-3)Gal(b1-4)Glc): -0.917
- glycan array binding signal (z-score) [1]: -0.794
- glycan array binding signal (z-score) [2]: 1.03
- glycan array binding signal (z-score) [3]: 1.23
- glycan array binding signal (z-score) [4]: 0.951
- glycan array binding signal (z-score) [5]: -0.441
- glycan array binding signal (z-score) [6]: 1.42
- glycan array binding signal (z-score) [7]: 3.07
- glycan array binding signal (z-score) [8]: 1.35
- glycan array binding signal (z-score) [9]: 1.06
- glycan array binding signal (z-score) [10]: 1.7
- glycan array binding signal (z-score) [11]: 1.29
- glycan array binding signal (z-score) [12]: 0.719
- glycan array binding signal (z-score) [13]: 0.178
- glycan array binding signal (z-score) [14]: 1.06
- glycan array binding signal (z-score) [15]: -0.791
- glycan array binding signal (z-score) [16]: -0.554
- glycan array binding signal (z-score) [17]: 0.344
- glycan array binding signal (z-score) [18]: -0.704
- glycan array binding signal (z-score) [19]: -0.452
- glycan array binding signal (z-score) [20]: -0.81
- glycan array binding signal (z-score) (GlcNAc(b1-3)GalNAc): -0.218
- glycan array binding signal (z-score) (GlcNAc(b1-3)Man): 0.083
- glycan array binding signal (z-score) [21]: -0.694
- glycan array binding signal (z-score) [22]: -0.571
- glycan array binding signal (z-score) [23]: -0.606
- glycan array binding signal (z-score) [24]: -1.08
- glycan array binding signal (z-score) (GlcNAc(b1-4)GlcNAc): -0.501
- glycan array binding signal (z-score) [25]: -0.615
- glycan array binding signal (z-score) [26]: -0.747
- glycan array binding signal (z-score) [27]: -0.953
- glycan array binding signal (z-score) [28]: -0.71
- glycan array binding signal (z-score) [29]: -0.897
- glycan array binding signal (z-score) (GlcNAc(b1-6)GalNAc): -0.557
- glycan array binding signal (z-score) [30]: -0.336
- glycan array binding signal (z-score) (Kdn(a2-3)Gal(b1-3)GalNAc): 2.17
- glycan array binding signal (z-score) (Kdn(a2-3)Gal(b1-3)GlcNAc): 0.708
